# Assay results from the supplement of paper PMC10849652.
# Protein sequences, listed by entry. Tags and fused reporters are not part of them. Lines headed by an entry give the natural chain unless they say otherwise; changes in a name come on top.
# UniProt P26583: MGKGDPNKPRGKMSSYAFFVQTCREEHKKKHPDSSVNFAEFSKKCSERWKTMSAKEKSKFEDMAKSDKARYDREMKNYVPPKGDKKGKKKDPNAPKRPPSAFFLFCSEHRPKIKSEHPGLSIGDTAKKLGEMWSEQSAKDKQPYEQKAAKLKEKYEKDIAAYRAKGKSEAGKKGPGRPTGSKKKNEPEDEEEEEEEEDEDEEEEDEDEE
# UniProt P07686: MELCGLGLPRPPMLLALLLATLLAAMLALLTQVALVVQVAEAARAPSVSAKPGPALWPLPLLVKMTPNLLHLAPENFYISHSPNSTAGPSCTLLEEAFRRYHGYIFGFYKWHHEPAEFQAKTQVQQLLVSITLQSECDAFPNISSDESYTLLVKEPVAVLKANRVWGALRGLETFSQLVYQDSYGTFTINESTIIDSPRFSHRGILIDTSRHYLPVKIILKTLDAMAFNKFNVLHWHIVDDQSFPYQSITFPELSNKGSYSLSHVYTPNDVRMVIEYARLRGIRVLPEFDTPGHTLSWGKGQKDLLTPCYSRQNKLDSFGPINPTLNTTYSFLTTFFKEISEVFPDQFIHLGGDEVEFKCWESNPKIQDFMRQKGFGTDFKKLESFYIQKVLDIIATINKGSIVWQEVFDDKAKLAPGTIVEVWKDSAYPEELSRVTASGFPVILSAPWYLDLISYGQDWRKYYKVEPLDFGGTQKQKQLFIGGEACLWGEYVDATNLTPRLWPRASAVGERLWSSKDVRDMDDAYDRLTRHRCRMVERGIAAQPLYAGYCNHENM
# UniProt Q53FT3: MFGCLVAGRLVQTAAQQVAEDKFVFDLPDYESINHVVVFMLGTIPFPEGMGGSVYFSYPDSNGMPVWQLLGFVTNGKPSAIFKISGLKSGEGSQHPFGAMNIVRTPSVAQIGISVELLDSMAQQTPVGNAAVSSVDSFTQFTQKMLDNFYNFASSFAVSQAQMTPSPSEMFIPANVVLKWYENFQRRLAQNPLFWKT
# UniProt P17096: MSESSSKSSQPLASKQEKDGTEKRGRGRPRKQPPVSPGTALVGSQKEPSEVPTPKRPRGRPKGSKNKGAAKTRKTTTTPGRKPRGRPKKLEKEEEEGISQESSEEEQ
# UniProt P22626: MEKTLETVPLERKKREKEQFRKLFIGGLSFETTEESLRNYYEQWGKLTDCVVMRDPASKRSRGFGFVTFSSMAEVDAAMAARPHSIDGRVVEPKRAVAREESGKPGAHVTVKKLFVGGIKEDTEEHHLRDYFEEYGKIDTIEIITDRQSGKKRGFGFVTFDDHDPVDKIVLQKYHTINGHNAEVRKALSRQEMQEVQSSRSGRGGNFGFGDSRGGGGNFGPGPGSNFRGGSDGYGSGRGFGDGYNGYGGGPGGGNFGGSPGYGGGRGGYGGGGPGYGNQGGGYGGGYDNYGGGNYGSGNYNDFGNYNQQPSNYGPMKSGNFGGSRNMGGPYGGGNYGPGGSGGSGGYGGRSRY
# UniProt P17483: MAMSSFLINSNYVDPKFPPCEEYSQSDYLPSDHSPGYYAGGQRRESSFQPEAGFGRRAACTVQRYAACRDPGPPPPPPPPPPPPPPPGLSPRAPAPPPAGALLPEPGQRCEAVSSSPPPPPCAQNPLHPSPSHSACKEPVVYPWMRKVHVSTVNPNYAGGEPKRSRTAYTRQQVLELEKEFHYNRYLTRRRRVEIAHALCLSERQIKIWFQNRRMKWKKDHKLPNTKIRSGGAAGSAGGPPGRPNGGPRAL
# UniProt Q99729: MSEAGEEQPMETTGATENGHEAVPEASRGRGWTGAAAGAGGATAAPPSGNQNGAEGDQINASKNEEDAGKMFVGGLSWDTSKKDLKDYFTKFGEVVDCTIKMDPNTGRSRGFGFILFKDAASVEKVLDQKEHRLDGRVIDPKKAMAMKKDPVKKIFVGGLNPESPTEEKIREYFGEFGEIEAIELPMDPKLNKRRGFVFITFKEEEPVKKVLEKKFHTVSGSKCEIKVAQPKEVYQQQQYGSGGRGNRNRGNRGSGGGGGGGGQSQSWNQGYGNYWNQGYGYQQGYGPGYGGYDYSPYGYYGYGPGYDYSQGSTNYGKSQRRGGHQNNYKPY
# UniProt P11021: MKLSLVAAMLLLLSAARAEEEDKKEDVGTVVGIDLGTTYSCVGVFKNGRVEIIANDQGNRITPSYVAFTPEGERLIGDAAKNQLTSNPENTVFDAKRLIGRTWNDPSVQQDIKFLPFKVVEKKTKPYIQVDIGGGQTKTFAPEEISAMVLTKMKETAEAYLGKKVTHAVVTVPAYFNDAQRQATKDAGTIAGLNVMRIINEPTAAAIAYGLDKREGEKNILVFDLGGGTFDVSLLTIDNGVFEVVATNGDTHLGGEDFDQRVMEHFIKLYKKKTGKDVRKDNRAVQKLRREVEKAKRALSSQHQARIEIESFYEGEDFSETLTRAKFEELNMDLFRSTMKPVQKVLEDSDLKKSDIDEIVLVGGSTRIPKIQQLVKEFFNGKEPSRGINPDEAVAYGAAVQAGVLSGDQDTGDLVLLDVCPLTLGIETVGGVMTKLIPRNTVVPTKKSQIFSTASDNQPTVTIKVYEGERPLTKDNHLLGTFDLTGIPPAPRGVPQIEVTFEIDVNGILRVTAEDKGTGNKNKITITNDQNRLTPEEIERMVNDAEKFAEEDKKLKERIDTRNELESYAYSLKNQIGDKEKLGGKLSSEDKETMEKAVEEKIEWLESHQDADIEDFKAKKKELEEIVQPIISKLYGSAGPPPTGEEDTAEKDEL
# UniProt Q6NT76: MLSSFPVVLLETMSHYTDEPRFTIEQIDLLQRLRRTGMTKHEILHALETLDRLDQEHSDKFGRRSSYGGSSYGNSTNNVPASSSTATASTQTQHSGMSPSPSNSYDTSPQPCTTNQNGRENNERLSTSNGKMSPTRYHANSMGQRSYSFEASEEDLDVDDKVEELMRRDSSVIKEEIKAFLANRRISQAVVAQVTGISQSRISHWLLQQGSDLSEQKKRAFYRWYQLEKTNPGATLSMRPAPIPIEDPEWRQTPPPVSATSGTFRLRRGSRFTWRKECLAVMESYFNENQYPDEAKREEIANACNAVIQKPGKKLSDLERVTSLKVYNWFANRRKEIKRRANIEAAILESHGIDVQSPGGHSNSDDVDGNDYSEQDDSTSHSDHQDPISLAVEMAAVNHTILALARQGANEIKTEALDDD
# UniProt Q5T447: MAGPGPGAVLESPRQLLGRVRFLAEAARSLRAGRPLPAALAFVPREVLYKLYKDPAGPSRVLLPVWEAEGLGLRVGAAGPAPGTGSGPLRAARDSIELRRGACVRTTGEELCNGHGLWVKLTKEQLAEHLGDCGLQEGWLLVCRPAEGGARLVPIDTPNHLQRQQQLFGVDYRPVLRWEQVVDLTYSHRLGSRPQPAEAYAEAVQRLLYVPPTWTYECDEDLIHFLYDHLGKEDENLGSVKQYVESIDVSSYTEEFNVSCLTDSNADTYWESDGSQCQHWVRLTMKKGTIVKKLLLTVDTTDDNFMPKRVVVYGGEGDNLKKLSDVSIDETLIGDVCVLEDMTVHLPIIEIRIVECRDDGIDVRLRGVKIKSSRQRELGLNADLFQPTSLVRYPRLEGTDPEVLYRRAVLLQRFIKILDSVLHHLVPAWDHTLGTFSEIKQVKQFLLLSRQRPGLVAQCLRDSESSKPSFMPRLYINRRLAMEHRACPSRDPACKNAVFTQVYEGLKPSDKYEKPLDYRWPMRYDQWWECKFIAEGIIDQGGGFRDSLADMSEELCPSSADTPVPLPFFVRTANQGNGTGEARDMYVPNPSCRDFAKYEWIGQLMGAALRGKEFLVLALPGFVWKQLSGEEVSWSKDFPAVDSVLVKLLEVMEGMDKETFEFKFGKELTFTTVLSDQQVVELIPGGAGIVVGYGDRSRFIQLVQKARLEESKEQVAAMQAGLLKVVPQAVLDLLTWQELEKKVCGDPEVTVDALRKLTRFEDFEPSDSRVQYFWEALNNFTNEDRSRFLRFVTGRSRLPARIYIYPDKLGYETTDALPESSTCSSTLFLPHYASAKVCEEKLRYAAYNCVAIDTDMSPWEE
# UniProt P09429: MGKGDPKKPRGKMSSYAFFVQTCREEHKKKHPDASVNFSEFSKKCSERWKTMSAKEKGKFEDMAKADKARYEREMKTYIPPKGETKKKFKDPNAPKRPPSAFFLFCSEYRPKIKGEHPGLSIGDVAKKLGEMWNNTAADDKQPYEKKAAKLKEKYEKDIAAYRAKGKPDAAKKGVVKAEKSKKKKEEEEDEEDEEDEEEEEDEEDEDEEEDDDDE
# UniProt P23327: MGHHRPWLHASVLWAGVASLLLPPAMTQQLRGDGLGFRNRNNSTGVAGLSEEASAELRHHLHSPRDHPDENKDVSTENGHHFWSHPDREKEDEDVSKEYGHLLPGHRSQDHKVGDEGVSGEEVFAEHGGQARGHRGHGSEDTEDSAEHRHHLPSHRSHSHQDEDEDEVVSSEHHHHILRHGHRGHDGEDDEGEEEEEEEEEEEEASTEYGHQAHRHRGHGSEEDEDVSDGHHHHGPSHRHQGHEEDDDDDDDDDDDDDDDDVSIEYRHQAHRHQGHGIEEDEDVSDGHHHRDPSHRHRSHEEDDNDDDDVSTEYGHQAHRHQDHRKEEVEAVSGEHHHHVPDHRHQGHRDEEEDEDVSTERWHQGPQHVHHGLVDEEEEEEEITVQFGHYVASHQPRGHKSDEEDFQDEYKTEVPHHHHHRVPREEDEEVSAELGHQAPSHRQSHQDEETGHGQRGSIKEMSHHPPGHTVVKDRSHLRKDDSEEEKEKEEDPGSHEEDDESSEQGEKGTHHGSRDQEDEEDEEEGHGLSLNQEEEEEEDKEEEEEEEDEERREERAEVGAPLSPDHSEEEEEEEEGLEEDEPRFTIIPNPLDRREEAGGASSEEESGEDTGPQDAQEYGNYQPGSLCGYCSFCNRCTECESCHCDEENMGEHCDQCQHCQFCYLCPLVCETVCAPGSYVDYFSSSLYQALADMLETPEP
# UniProt Q9NWT6: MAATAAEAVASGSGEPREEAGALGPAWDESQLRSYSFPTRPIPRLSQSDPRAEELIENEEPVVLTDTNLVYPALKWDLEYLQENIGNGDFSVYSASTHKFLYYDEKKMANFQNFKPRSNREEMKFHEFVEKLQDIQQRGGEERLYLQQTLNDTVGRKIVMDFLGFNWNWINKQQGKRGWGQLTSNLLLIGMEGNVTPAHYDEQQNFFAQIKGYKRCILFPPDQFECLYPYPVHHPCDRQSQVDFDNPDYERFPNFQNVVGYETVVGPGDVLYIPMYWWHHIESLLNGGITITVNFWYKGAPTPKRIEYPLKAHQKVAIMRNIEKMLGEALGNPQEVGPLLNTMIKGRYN
# UniProt Q6NVY1: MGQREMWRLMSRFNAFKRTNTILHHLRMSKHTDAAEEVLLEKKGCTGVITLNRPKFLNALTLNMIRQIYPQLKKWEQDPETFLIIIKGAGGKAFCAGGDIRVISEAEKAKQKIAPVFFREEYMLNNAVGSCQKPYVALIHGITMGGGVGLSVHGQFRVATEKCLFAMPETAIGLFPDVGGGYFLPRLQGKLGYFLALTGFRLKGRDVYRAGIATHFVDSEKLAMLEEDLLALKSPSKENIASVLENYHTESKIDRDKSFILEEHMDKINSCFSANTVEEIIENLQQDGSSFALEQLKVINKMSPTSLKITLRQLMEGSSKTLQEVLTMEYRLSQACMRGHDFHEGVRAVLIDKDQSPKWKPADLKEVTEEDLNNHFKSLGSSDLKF
# UniProt P51991: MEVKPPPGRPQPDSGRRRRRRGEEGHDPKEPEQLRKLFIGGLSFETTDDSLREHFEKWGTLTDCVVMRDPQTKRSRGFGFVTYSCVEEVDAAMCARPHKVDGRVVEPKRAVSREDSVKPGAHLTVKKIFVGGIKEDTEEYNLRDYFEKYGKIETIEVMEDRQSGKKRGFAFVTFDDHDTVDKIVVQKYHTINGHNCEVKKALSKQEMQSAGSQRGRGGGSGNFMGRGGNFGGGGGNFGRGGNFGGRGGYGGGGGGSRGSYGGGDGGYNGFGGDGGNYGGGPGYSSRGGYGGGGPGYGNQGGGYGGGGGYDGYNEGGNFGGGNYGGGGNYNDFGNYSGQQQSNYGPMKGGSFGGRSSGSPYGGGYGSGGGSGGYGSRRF
# The list shows a part of the results.
# Key:
# Assay in all cases: log2 fold change, soluble protein after heating vs DMSO (PISA); higher = thermal stabilisation; K562 lysate, 10 uM; active = over 0.2 and 3.5 SD of the protein, either way, in both replicates (recomputed)
# [1] = compound: CS(=O)(=O)CCNCc1ccc(-c2ccc3ncnc(Nc4ccc(OCc5cccc(F)c5)c(Cl)c4)c3c2)o1 [lapatinib]
# Method in brief: (§1)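 To prepare the extract, K562 pellets were dounce-homogenised in PBS pH 7.4 with 1 mM MgCl2, giving crude material at 1 mg/mL protein. This was treated with 10 μM compound for 30 min, then heated in aliquots for 3 min over 48°C-58°C before pooling and addition of NP-40 to 0.5% at 4°C. Centrifugation at 21,000xg for 90 min left soluble protein in the supernatant, which TMTpro 16plex LC-MS/MS quantified with equalised channel sums. Results are log-two fold changes in thermal stability compared with solvent controls, from duplicates.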
# [2] = compound: CS(=O)(=O)N1CCN(Cc2cc3nc(-c4cccc5[nH]ncc45)nc(N4CCOCC4)c3s2)CC1 [pictilisib]
# Method in brief: as §1
# [3] = compound: C[C@@H](Oc1cc(-c2cnn(C3CCNCC3)c2)cnc1N)c1c(Cl)ccc(F)c1Cl [crizotinib]
# Method in brief: as §1
# [4] = compound: C[C@H](C1=CC=C(C=C1)C(=O)NC2=C3C=CNC3=NC=C2)N
# Method in brief: as §1
# [5] = compound: C[C@H](Nc1ncnc2nc[nH]c12)c1cc2cccc(Cl)c2c(=O)n1-c1ccccc1 [duvelisib]
# Method in brief: as §1
# [6] = compound: Cc1cc(Nc2cc(CN3CCOCC3)c3nc(C)c(Cc4ccc(Cl)cc4F)n3n2)n[nH]1 [gandotinib]
# Method in brief: as §1
# [7] = compound: Cc1cc(Nc2cc(N3CCN(C)CC3)nc(Sc3ccc(NC(=O)C4CC4)cc3)n2)n[nH]1 [tozasertib]
# Method in brief: as §1
# [8] = compound: Cc1ccc(-n2nc(C(C)(C)C)cc2NC(=O)Nc2ccc(OCCN3CCOCC3)c3ccccc23)cc1 [doramapimod]
# Method in brief: as §1
# [9] = compound: Cc1ccc(NC(=O)c2ccc(CN3CC[C@H](N(C)C)C3)c(C(F)(F)F)c2)cc1Nc1nccc(-c2cncnc2)n1 [bafetinib]
# Method in brief: as §1
# [10] = compound: Cc1cccc(CC(=O)N2CCc3c2ccc(-c2cn(C)c4ncnc(N)c24)c3F)n1
# Method in brief: as §1
# [11] = compound: Cc1cn(-c2cc(NC(=O)c3ccc(C)c(Nc4nccc(-c5cccnc5)n4)c3)cc(C(F)(F)F)c2)cn1 [nilotinib]
# Method in brief: as §1
# [12] = compound: Cc1nc(Nc2n[nH]c3c2CN(C(=O)N[C@H](CN(C)C)c2ccccc2)C3(C)C)c2sccc2n1
# Method in brief: as §1
# [13] = compound: Cc1nc(Nc2ncc(C(=O)Nc3c(C)cccc3Cl)s2)cc(N2CCN(CCO)CC2)n1 [dasatinib]
# Method in brief: as §1
# [14] = compound: Cc1ncc(-c2ccnc(Nc3ccc(S(C)(=O)=O)cc3)n2)n1C(C)C
# Method in brief: as §1
# [15] = compound: Cn1cc(-c2ccc3c(c2)CCN3C(=O)Cc2cccc(C(F)(F)F)c2)c2c(N)ncnc21
# Method in brief: as §1
# [16] = compound: Cn1cc(CNCC2CCN(c3ncc(C(=O)NO)cn3)CC2)c2ccccc21 [quisinostat]
# Method in brief: as §1
# [17] = compound: Cn1cncc1[C@@](N)(c1ccc(Cl)cc1)c1ccc2c(c1)c(-c1cccc(Cl)c1)cc(=O)n2C [tipifarnib]
# Method in brief: as §1
# [18] = compound: NC(=O)Nc1cc(-c2cccc(F)c2)sc1C(=O)N[C@H]1CCCNC1
# Method in brief: as §1
# [19] = compound: NC(=O)c1cnc(N[C@@H]2CCCC[C@@H]2N)nc1Nc1cccc(-n2nccn2)c1
# Method in brief: as §1
# [20] = compound: NC1(c2ccc(-c3nc4ccn5c(=O)[nH]nc5c4cc3-c3ccccc3)cc2)CCC1
# Method in brief: as §1
Target,log2 fold change [1],log2 fold change [2],log2 fold change [3],log2 fold change [4],log2 fold change [5],log2 fold change [6],log2 fold change [7],log2 fold change [8],log2 fold change [9],log2 fold change [10],log2 fold change [11],log2 fold change [12],log2 fold change [13],log2 fold change [14],log2 fold change [15],log2 fold change [16],log2 fold change [17],log2 fold change [18],log2 fold change [19],log2 fold change [20]
HMGB2 (UniProt P26583),inactive: 0.006,inactive: 0.021,inactive: 0.052,active: 0.266,inactive: -0.01,inactive: -0.16,inactive: -0.022,inactive: -0.088,inactive: 0.14,active: -0.244,inactive: 0.045,inactive: -0.042,inactive: 0.057,inactive: 0.077,inactive: 0.018,inactive: 0.065,inactive: 0.033,inactive: -0.014,inactive: -0.018,inactive: 0
HEXB (UniProt P07686),inactive: -0.007,inactive: -0.02,inactive: 0.011,inactive: 0.037,inactive: 0.014,inactive: -0.039,inactive: 0.01,inactive: 0.017,inactive: 0.001,inactive: -0.081,inactive: -0.013,inactive: -0.017,inactive: 0.009,inactive: 0.015,inactive: 0.022,inactive: 0.076,inactive: 0.035,inactive: -0.004,inactive: -0.005,inactive: -0.003
HMGN4 (UniProt O00479),inactive: 0.038,inactive: -0.044,inactive: 0.047,active: 1.19,inactive: -0.074,inactive: -0.421,inactive: 0.078,inactive: -0.163,inactive: 0.6,inactive: -0.551,inactive: 0.049,inactive: -0.072,inactive: 0.192,inactive: 0.009,inactive: 0.003,inactive: 0.171,inactive: 0.001,inactive: -0.019,inactive: 0.012,inactive: -0.028
HIKESHI (UniProt Q53FT3),inactive: 0.004,inactive: -0.008,inactive: 0.025,inactive: 0.025,inactive: 0.002,inactive: -0.059,inactive: -0.066,inactive: 0.012,inactive: -0.037,inactive: -0.028,inactive: 0.003,inactive: 0.014,inactive: -0.007,inactive: 0.004,inactive: 0.014,inactive: 0.02,inactive: 0.024,inactive: -0.029,inactive: -0.046,inactive: 0.051
HMGA1 (UniProt P17096),inactive: -0.023,inactive: 0.03,inactive: 0.007,inactive: -0.27,inactive: 0.058,inactive: 0.069,inactive: -0.062,inactive: -0.02,inactive: 0.043,inactive: 0.036,inactive: 0.035,inactive: 0.039,inactive: -0.012,inactive: 0.014,inactive: -0.08,inactive: -0.018,inactive: 0.032,inactive: -0.004,inactive: -0.025,inactive: -0.059
HNRNPA2B1 (UniProt P22626),inactive: 0.015,inactive: 0.015,inactive: 0.013,inactive: -0.015,inactive: 0.004,inactive: -0.002,inactive: 0.019,inactive: -0.011,inactive: 0.011,inactive: 0.025,inactive: -0.055,inactive: -0.008,inactive: 0.018,inactive: -0.003,inactive: 0.009,inactive: 0.044,inactive: -0.012,inactive: -0.014,inactive: -0.009,inactive: -0.034
HOXB4 (UniProt P17483),inactive: -0.081,inactive: -0.086,inactive: 0.043,inactive: -0.044,inactive: -0.149,inactive: -0.017,inactive: -0.007,inactive: 0.025,inactive: -0.052,inactive: 0.025,inactive: -0.024,inactive: 0.126,inactive: -0.007,inactive: 0.043,inactive: -0.176,inactive: -0.009,inactive: 0.008,inactive: -0.059,inactive: 0.085,
HNRNPAB isoform 3 (UniProt Q99729),inactive: 0.007,inactive: 0.01,inactive: 0.04,inactive: -0.068,inactive: -0.009,inactive: 0.019,inactive: -0.02,inactive: -0.058,inactive: -0.002,inactive: 0.033,inactive: -0.012,inactive: 0.026,inactive: 0.022,inactive: 0.024,inactive: -0.028,inactive: 0.026,inactive: 0.006,inactive: 0,inactive: -0.005,inactive: 0.012
HSPA5 (UniProt P11021),inactive: -0.019,inactive: 0.018,inactive: 0.026,inactive: 0.034,inactive: 0.015,inactive: -0.077,inactive: 0.05,inactive: 0.022,inactive: 0.044,inactive: -0.079,inactive: -0.002,inactive: -0.007,inactive: -0.001,inactive: -0.003,inactive: -0.021,inactive: 0.045,inactive: 0.007,inactive: -0.044,inactive: -0.016,inactive: 0.037
HMBOX1 isoform 5 (UniProt Q6NT76),active: 0.254,inactive: -0.097,inactive: 0.023,inactive: 0,inactive: 0.021,inactive: 0.052,inactive: 0.035,inactive: -0.013,inactive: 0.112,inactive: 0.129,inactive: 0.186,inactive: -0.038,inactive: -0.034,inactive: 0.078,inactive: 0.024,inactive: -0.008,inactive: 0.077,inactive: 0.001,inactive: 0.041,inactive: -0.055
HECTD3 (UniProt Q5T447),inactive: -0.047,inactive: -0.098,inactive: -0.034,inactive: -0.001,inactive: -0.006,inactive: -0.013,inactive: 0.018,inactive: 0.056,inactive: -0.13,inactive: -0.004,inactive: -0.004,inactive: 0.041,inactive: -0.016,inactive: -0.012,inactive: 0.006,inactive: 0.026,inactive: 0.059,inactive: 0.05,inactive: 0.003,inactive: 0.056
HMGB1 (UniProt P09429),inactive: 0.017,inactive: 0.02,inactive: -0.024,active: 0.304,inactive: 0.028,inactive: -0.097,inactive: 0.03,inactive: -0.014,inactive: 0.079,inactive: -0.154,inactive: 0.056,inactive: -0.002,inactive: 0.03,inactive: 0.064,inactive: -0.03,inactive: 0.108,inactive: 0.026,inactive: -0.021,inactive: 0,inactive: -0.011
HRC (UniProt P23327),inactive: -0.018,inactive: 0.001,inactive: -0.04,inactive: -0.014,inactive: -0.134,inactive: 0.104,inactive: -0.042,inactive: -0.01,inactive: -0.064,inactive: 0.051,inactive: 0.006,inactive: 0.025,inactive: -0.049,inactive: -0.043,inactive: 0.061,inactive: -0.072,inactive: -0.036,inactive: -0.003,inactive: 0.047,inactive: -0.033
HIF1AN (UniProt Q9NWT6),inactive: 0,inactive: -0.065,inactive: 0.042,inactive: -0.043,inactive: -0.054,inactive: 0.057,inactive: 0.001,inactive: 0.153,inactive: -0.141,inactive: 0.018,inactive: -0.018,inactive: -0.001,inactive: -0.018,inactive: -0.013,inactive: -0.026,inactive: -0.165,inactive: -0.039,inactive: 0.114,inactive: -0.002,inactive: 0.019
HIBCH (UniProt Q6NVY1),inactive: -0.011,inactive: -0.024,inactive: -0.02,inactive: 0.062,inactive: -0.007,inactive: -0.063,inactive: 0.009,inactive: -0.007,inactive: -0.015,inactive: -0.084,inactive: -0.021,inactive: 0.016,inactive: 0.021,inactive: 0.025,inactive: 0.002,inactive: 0.008,inactive: 0.043,inactive: 0.007,inactive: -0.005,inactive: 0.006
HNRNPA3 (UniProt P51991),inactive: 0,inactive: -0.035,inactive: 0.075,inactive: 0.006,inactive: -0.012,inactive: -0.024,inactive: 0.017,inactive: -0.015,inactive: 0.02,inactive: -0.039,inactive: 0.033,inactive: -0.011,inactive: 0.033,inactive: 0.036,inactive: 0.069,inactive: 0.11,inactive: 0.092,inactive: -0.03,inactive: -0.021,inactive: 0.062

# Another view of some results above:
Target	log2 fold change [1]	log2 fold change [2]	log2 fold change [3]	log2 fold change [4]	log2 fold change [5]	log2 fold change [6]	log2 fold change [7]	log2 fold change [8]	log2 fold change [9]	log2 fold change [10]	log2 fold change [11]	log2 fold change [12]	log2 fold change [13]	log2 fold change [14]	log2 fold change [15]	log2 fold change [16]	log2 fold change [17]	log2 fold change [18]	log2 fold change [19]	log2 fold change [20]
HNRNPA2B1 (UniProt P22626)	inactive: 0.015	inactive: 0.015	inactive: 0.013	inactive: -0.015	inactive: 0.004	inactive: -0.002	inactive: 0.019	inactive: -0.011	inactive: 0.011	inactive: 0.025	inactive: -0.055	inactive: -0.008	inactive: 0.018	inactive: -0.003	inactive: 0.009	inactive: 0.044	inactive: -0.012	inactive: -0.014	inactive: -0.009	inactive: -0.034
HNRNPAB isoform 3 (UniProt Q99729)	inactive: 0.007	inactive: 0.01	inactive: 0.04	inactive: -0.068	inactive: -0.009	inactive: 0.019	inactive: -0.02	inactive: -0.058	inactive: -0.002	inactive: 0.033	inactive: -0.012	inactive: 0.026	inactive: 0.022	inactive: 0.024	inactive: -0.028	inactive: 0.026	inactive: 0.006	inactive: 0	inactive: -0.005	inactive: 0.012
HRC (UniProt P23327)	inactive: -0.018	inactive: 0.001	inactive: -0.04	inactive: -0.014	inactive: -0.134	inactive: 0.104	inactive: -0.042	inactive: -0.01	inactive: -0.064	inactive: 0.051	inactive: 0.006	inactive: 0.025	inactive: -0.049	inactive: -0.043	inactive: 0.061	inactive: -0.072	inactive: -0.036	inactive: -0.003	inactive: 0.047	inactive: -0.033
HIBCH (UniProt Q6NVY1)	inactive: -0.011	inactive: -0.024	inactive: -0.02	inactive: 0.062	inactive: -0.007	inactive: -0.063	inactive: 0.009	inactive: -0.007	inactive: -0.015	inactive: -0.084	inactive: -0.021	inactive: 0.016	inactive: 0.021	inactive: 0.025	inactive: 0.002	inactive: 0.008	inactive: 0.043	inactive: 0.007	inactive: -0.005	inactive: 0.006
